Test results as given in PMC7226807.
No constants are given. Whether binding was seen depends on the method and setting. In cells and extracts the contact can be indirect. Some binding calls cover weakened binding; strength is not graded here.

Sequences of proteins named here, by UniProt entry; tags and fusion partners are left off. Residues count along the entry.
UniProt Q13283: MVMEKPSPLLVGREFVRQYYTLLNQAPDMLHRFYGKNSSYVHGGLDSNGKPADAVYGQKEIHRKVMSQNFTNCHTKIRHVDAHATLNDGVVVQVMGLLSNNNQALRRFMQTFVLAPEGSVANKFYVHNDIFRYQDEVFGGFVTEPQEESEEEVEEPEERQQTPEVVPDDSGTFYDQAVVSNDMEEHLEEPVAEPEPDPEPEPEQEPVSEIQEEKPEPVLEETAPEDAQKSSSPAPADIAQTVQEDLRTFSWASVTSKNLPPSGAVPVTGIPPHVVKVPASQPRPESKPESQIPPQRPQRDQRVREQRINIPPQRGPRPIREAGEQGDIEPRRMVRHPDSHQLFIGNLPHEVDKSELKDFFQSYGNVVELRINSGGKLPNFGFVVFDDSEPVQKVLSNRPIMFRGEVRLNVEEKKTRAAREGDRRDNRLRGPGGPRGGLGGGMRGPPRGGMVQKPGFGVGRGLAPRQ
UniProt P14625, residues 22-803: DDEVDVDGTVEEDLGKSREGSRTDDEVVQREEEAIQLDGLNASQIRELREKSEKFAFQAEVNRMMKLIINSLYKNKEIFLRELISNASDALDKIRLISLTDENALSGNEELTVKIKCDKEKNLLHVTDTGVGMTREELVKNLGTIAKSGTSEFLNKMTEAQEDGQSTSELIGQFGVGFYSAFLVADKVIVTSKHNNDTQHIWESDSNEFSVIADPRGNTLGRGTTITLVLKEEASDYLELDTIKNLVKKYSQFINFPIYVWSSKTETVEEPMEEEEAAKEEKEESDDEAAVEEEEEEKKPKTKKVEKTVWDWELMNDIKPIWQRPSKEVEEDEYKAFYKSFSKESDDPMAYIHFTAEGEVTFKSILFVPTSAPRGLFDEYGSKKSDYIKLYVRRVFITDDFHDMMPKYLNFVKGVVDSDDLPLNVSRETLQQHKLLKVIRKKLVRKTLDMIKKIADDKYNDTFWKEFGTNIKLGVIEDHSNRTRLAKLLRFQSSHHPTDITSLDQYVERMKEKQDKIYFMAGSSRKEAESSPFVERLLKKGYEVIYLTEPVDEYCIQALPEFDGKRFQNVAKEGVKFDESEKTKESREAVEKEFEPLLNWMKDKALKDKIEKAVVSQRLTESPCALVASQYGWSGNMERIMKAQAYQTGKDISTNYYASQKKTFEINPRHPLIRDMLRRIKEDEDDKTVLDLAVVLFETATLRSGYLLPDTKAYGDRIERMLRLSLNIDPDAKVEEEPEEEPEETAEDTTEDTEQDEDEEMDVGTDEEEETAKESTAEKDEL
UniProt Q15717: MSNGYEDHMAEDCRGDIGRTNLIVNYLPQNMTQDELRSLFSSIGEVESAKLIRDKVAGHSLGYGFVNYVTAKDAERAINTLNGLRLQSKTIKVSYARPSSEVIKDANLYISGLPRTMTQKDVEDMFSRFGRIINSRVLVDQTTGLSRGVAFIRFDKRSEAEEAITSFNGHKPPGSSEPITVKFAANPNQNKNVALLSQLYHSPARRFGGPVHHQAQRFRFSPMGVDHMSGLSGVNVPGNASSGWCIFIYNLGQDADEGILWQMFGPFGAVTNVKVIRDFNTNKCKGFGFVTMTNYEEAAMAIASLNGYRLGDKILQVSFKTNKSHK

Biological target: T1, HspBP1 (hsp70-binding protein 1) (human (endogenous in HeLa)) (UniProt Q9NZL4)
T1 sequence: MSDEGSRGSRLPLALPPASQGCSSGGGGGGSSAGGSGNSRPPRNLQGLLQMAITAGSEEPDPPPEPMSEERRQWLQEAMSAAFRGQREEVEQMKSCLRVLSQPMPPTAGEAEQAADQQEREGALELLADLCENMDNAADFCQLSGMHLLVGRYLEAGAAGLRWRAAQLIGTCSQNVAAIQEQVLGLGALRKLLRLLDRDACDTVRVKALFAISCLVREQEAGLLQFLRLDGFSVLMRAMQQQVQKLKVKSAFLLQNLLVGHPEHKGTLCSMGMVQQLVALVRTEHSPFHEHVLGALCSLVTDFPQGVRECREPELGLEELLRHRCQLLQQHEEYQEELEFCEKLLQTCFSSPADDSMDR
Assay: co-IP; HeLa cells incubated with vehicle or 2 mM DEM; reversible cross-linking with DSP (15 min, 37 °C); indirect immunoprecipitation with antibodies against HspBP1; Western blotting of the immunoprecipitates

Substance: G3BP1 (from UniProt Q13283 1-466)
- binding: binds

Substance: Grp94 (from UniProt P14625 22-803)
- binding: no binding

Substance: HuR (from UniProt Q15717 1-326)
- binding: binds
